Measured values from publication PMC9559323.
No constants are given. Whether binding was seen depends on the method and setting. In cells and extracts the contact can be indirect. Here binding means that the protein was enriched with, or labelled near, the bait; the list need not be complete.

Biological target: translocated EspH_(Δ130-168) (SBP-tagged) (enteropathogenic Escherichia coli (EPEC))
Experiment: affinity purification with mass spectrometry; HeLa cells infected 90 min at 37°C with EPEC strains; SBP-tagged translocated EspH precipitated from lysates (50 mM Tris pH 7.4, 150 mM NaCl, 0.5% NP-40) with StAv agarose beads, 4 hrs at 4°C; on-bead digestion, LC-MS/MS, label-free quantification

B1: Rab3A (protein, UniProt P20336 1-220)
chain: MASATDSRYGQKESSDQNFDYMFKILIIGNSSVGKTSFLFRYADDSFTPAFVSTVGIDFKVKTIYRNDKRIKLQIWDTAGQERYRTITTAYYRGAMGFILMYDITNEESFNAVQDWSTQIKTYSWDNAQVLLVGNKCDMEDERVVSSERGRQLADHLGFEFFEASAKDNINVKQTFERLVDVICEKMSESLDTADPAVTGAKQGPQLSDQQVPPHQDCAC
Question: With B1 as the binder, how does the binding read?
Answer: binds
